# Measured values published in patent USRE42748E1, “Oral DTPA for radionuclide chelation” (priority 2006, dated 2011).
# System: iron-loaded dogs
# Test: Excretion of iron after repeat dose administration of DTPA in iron-loaded dogs
# Format: in vivo, beagle dogs
# Experimental: The objective of this study was to evaluate the efficacy of an oral formulation of DTPA to enhance the excretion of iron in urine from iron-loaded dogs. Iron-loaded dogs were used in the study as a surrogate model for contamination by transuranic elements.
# Two treatment groups, consisting of one male and one female dog, were compared. Ca-DTPA in sterile saline was administered by the intravenous route, 10 mg/kg, on Day 1, followed by 4 days of treatment with Zn-DTPA (10 mg/kg daily). The oral treatment group was also administered 10 mg/kg in 20% Labrasol® in capsules, with Ca-DTPA on Day 1 and Zn-DTPA on Days 2-5. Blood was collected from each dog at the following time points: predose and 1, 4, 8, and 24 hr after dose administration on Day 1, and at 24 hr postdose on Days 2-5. Dogs were maintained in metabolism cages for the study, and urine was collected at 4, 8, and 24 hr after the Day 1 dose, and every 24 hr after the Day 2-5 doses. Collected samples were analyzed for iron, calcium, and zinc by Perkin-Elmer ICP (Inductively Coupled Plasma) unit.
# [1] = plasma, IV and oral groups, Days 1-5
compound,measurement,setting,value
O=C(O)CN(CCN(CC(=O)O)CC(=O)O)CCN(CC(=O)O)CC(=O)O [DTPA],Zn in plasma samples,[1],not detected
same,"plasma Ca and Fe, relation to treatment",[1],did not show any trend that appeared to be related to treatment
"O=C([O-])CN(CCN(CC(=O)[O-])CC(=O)[O-])CCN(CC(=O)[O-])CC(=O)[O-].[Na+].[Na+].[Na+].[Zn+2] [Zn-DTPA, zinc diethylenetriaminepentaacetate]","Excretion of Zn in the urine, correlation with administration","urine, Zn-DTPA on study Days 2-5",did not seem to be correlated
"O=C([O-])CN(CCN(CC(=O)[O-])CC(=O)[O-])CCN(CC(=O)[O-])CC(=O)[O-].[Ca+2].[Na+].[Na+].[Na+] [Ca-DTPA, calcium diethylenetriaminepentaacetate]","Ca levels in the urine, correlation with administration","urine, Ca-DTPA on Day 1",did not show a correlation
